In publication PMC4373692:
Results are given in words; binding and its absence hold for the method and conditions named. Binding seen in cells or lysates may run through a third protein. Some results given as binding are weak or reduced against the parent protein; the word gives no strength.

T1: mitochondrial asparaginyl-tRNA synthetase NARS2, wild type (human) (UniProt Q96I59)
T1 sequence: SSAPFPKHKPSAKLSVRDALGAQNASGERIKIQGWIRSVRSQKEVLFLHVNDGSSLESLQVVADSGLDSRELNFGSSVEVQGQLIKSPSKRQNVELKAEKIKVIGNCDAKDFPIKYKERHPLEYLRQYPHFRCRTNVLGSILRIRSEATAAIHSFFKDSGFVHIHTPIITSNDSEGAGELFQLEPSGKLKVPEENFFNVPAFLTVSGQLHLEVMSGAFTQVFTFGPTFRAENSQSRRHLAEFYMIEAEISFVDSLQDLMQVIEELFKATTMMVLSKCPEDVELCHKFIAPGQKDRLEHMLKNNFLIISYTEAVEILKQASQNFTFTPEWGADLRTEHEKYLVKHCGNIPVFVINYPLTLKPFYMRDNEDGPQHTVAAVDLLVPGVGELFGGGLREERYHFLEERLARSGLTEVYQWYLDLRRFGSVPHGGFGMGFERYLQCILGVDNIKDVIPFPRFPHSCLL


Biological target: T1, mitochondrial asparaginyl-tRNA synthetase NARS2, wild type (human)
Assay: co-IP; GFP- and HA-tagged NARS2 constructs co-expressed in HEK293T cells; lysis buffer 50mM Tris HCl pH7.4, 100mM NaCl, 1% NP-40, 2mM Na3VO4; immunoprecipitation with anti-GFP antibody, blots for GFP and HA

Binder	binding
mitochondrial asparaginyl-tRNA synthetase NARS2, wild type (enzyme, UniProt Q96I59-1 15-477) SSAPFPKHKPSAKLSVRDALGAQNASGERIKIQGWIRSVRSQKEVLFLHVNDGSSLESLQVVADSGLDSRELNFGSSVEVQGQLIKSPSKRQNVELKAEKIKVIGNCDAKDFPIKYKERHPLEYLRQYPHFRCRTNVLGSILRIRSEATAAIHSFFKDSGFVHIHTPIITSNDSEGAGELFQLEPSGKLKVPEENFFNVPAFLTVSGQLHLEVMSGAFTQVFTFGPTFRAENSQSRRHLAEFYMIEAEISFVDSLQDLMQVIEELFKATTMMVLSKCPEDVELCHKFIAPGQKDRLEHMLKNNFLIISYTEAVEILKQASQNFTFTPEWGADLRTEHEKYLVKHCGNIPVFVINYPLTLKPFYMRDNEDGPQHTVAAVDLLVPGVGELFGGGLREERYHFLEERLARSGLTEVYQWYLDLRRFGSVPHGGFGMGFERYLQCILGVDNIKDVIPFPRFPHSCLL	binds
p.Val213Phe NARS2 (enzyme, UniProt Q96I59-1 15-477) SSAPFPKHKPSAKLSVRDALGAQNASGERIKIQGWIRSVRSQKEVLFLHVNDGSSLESLQVVADSGLDSRELNFGSSVEVQGQLIKSPSKRQNVELKAEKIKVIGNCDAKDFPIKYKERHPLEYLRQYPHFRCRTNVLGSILRIRSEATAAIHSFFKDSGFVHIHTPIITSNDSEGAGELFQLEPSGKLKVPEENFFNFPAFLTVSGQLHLEVMSGAFTQVFTFGPTFRAENSQSRRHLAEFYMIEAEISFVDSLQDLMQVIEELFKATTMMVLSKCPEDVELCHKFIAPGQKDRLEHMLKNNFLIISYTEAVEILKQASQNFTFTPEWGADLRTEHEKYLVKHCGNIPVFVINYPLTLKPFYMRDNEDGPQHTVAAVDLLVPGVGELFGGGLREERYHFLEERLARSGLTEVYQWYLDLRRFGSVPHGGFGMGFERYLQCILGVDNIKDVIPFPRFPHSCLL	binds
